The results in this text go back to PubChem BioAssay AID1458 (National Center for Advancing Translational Sciences (NCATS), 2008).

Hit rate of the full screen: of about 210,000 compounds, about 5,900 (2.8%) were called active. About 5% were inconclusive and are not listed. Calls follow the shape of the dose curve; as a rule, active = well fitted activation curve with a large enough effect; inconclusive = small, poorly fitted or top-dose-only effect; inactive = no such curve, though single readings can be large or run the other way. This is a selection; strong and weak results do not stand in their true shares. Where no call is shown, the source filed none.
Potency is read from the fitted curve at half-maximal effect.

A short description of the experiment: qHTS Assay for Enhancers of SMN2 Splice Variant Expression. Also: nearly all actives have a fitted effect of over 55% in size. As to activity change, positive = activation: % of control where 0% means no effect. The conditions noted are these: HEK293 SMN2-luciferase splicing reporter, luminescence, 30-36 h; activity change, positive = activation: at 46.1 µM (top of the series) unless noted. A digest of the protocol: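 HEK293 cells carry an SMN2 […]–luciferase reporter in which exon 7 inclusion puts luciferase in frame. Cells were plated 10-12 h before compound addition, then incubated 30-36 h at 37C. ONE-Glo luminescence was read; sodium butyrate at 4.5 mM final served as control.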
As for `C/C(Cl)=C\COc1cc(C)nc2c(Br)cccc12`, the “activity change, positive = activation” value is inactive: -30.2%. For the compound `Cc1ccc(-c2nc(-c3nccc4ccccc34)oc2-c2ccccc2)cc1`, the Potency is active: 3.55 µM. Consider `CCOc1ccc(CNC(=O)c2ccc(Sc3ccc(C)cc3)c(NC(C)=O)c2)cc1OC`, for which the activity change, positive = activation was -40.3%. Still for that read-out and setting: to `COc1ccccc1C(=O)Nc1ccc(-c2nnc(SCC(=O)O)n2C)cc1` belongs 35.4%; to `NCCc1nnc(SCc2ccccc2)o1`, 33.2%.

As to `C=CCNC(=O)c1ccc(Cn2cc(C(F)(F)F)ccc2=O)cc1`, the activity change, positive = activation stood at 49.9%. Same read-out and setting: to `COc1ccccc1NC(=O)CC(NCCN(C)C)C(=O)O` (configuration not stated) belongs -38%; to `O=C(Nc1ccc2c(c1)OCO2)N1CCOCC1`, 44.4%.

In the case of `CCN1c2ccccc2NC2N=C(OC)C(c3ccccc3)C21` (configuration not stated), the activity change, positive = activation is -65.5%. The same measure, in the same setting: to `O=C(CSc1ncc(-c2ccc(F)cc2)[nH]1)Nc1cccc(O)c1` belongs 36.5%; to `COc1ccc(/C=C\c2nc(=O)c3ccccc3o2)cc1`, 149%; to `CCOC(=O)N1CCN(C(=O)c2ccc3c(c2)sc2nc(-c4ccccc4)cn23)CC1`, inactive: -32.2%. In the case of `COc1ccc(CCNc2nc(-c3sc(C)nc3C)cs2)cc1OC`, the “activity change, positive = activation” value is inactive: -47.9%. Take `CCn1cc(Cl)c(C(=O)Nc2ccc(OC)c(OC)c2)n1`: the “activity change, positive = activation” value was inactive: -41.6%. On the same count and under the same terms, to `CC(Oc1ccc(Cl)cc1Cl)C(=O)N/N=C1\CCCc2ccccc21` (configuration not stated) belongs 32.4%; to `Cc1cc(OCc2nc(N)nc(N)c2-c2ccc(Cl)c(Cl)c2)ccc1[N+](=O)[O-]`, inactive: -39.7% [at 9.22 µM]. Same read-out and setting: to `O=C(NCCN1CCOCC1)c1ccncc1` belongs 33.2%; to `Cc1ccc(OCC(=O)O/N=C(\N)c2cccnc2)cc1`, 49.7%. Same read-out and setting: to `Cc1ccc2c(CC(=O)NCc3ccc4c(c3)OCO4)coc2c1` belongs 37.3%; to `CCc1ccc(C(=O)NCc2cnn(C)c2)s1`, 31.9%. As for `COc1ccc(NC(=O)c2sc(SC)nc2N)cc1`, the Potency is active: 12.6 µM. For `CCOC(=O)C1CCCN(C(=O)C2CC(=O)N(c3ccc(C)cc3)C2)C1` (configuration not stated), the activity change, positive = activation amounted to 35.8%.

For `O=C(N/N=C/C1CC2CCC1C2)c1ccc2c(c1)OCO2` (configuration not stated), the “activity change, positive = activation” value is inactive: -2.94%. `COc1ccccc1NC(=O)c1ncn(-c2ccccc2)n1`: the Potency was active: 11.2 µM. For the compound `O=S(=O)(N1CCCCC1)N1CCN(c2ccccc2F)CC1`, the activity change, positive = activation worked out at 41%.

For the compound `COc1ccc(/C=C/C(=O)N2c3ccccc3Sc3ccc(C(F)(F)F)cc32)cc1`, the activity change, positive = activation worked out at 38.5% [at 1.84 µM].

For the compound `O=C(Cc1coc(-c2ccc(F)cc2)n1)NCc1ccccc1`, the activity change, positive = activation was 18.7%. The same measure, in the same setting: to `CCc1cccc(C)c1NC(=O)CSc1nnc(-c2ccco2)n1N` belongs 36.1%; to `N=c1ccn2c(n1)O[C@H]1[C@@H](O)[C@@H](CO)O[C@H]12`, inactive: -35.8%. For `O=C(N/N=C\c1ccc(Oc2ccccc2)cc1)c1csnn1`, the Potency was active: 15.8 µM. Regarding `O=C(OCC(=O)c1c[nH]c2ccccc12)c1ccc(Br)o1`, the activity change, positive = activation was determined as 37.9%. Same read-out and setting: for `COc1cc(OC)cc(C(=O)NNC(=O)c2ccccn2)c1` the value was -95.6%. With `COC(=O)c1sc2nc3c(cc2c1N)CCCC3`, the Potency is active: 10 µM.

On to `CC(=O)Nc1cccc(NC(=O)CSc2nnnn2Cc2ccccc2)c1`, for which the activity change, positive = activation was -31.6%. On the same count and under the same terms, for `COC(=O)Cc1ccc(NC(=S)NCC(C)C)cc1` the value was 19.3%.

For the compound `CN(C)c1ccc(/C=C/C(=O)c2ccccc2O)cc1`, the activity change, positive = activation came to 144%. Still for that read-out and setting: for `CCOc1ccc(NCCC(=O)c2ccc3c(c2)OCO3)cc1` the value was 35.3%; for `Cc1ccc(C(C(=O)NC2CCCCC2)N(C(=O)c2csnn2)C2CCCC2)o1` (configuration not stated), 36.1%; for `O=C(c1ccc(CSc2nc3ccncc3[nH]2)cc1)N1CCN(c2cccc(Cl)c2)CC1`, inactive: -70%. The same measure, in the same setting: for `CN(C)/C=C/C(=O)c1ccc(N2CCN(c3ncc(C(F)(F)F)cc3Cl)CC2)cc1` the value was -55.9%; for `O=C(CSc1ncc(-c2ccccc2)nn1)NCc1ccco1`, 50.6%.

With `Cc1[nH]c(=O)c(C(=O)/C=C/c2ccccc2F)c2c1CCCC2`, the “activity change, positive = activation” value is inactive: -82.8%. Same read-out and setting: for `CC(C)(CO)NCc1ccccc1OCC(=O)Nc1ccccc1` the value was 49.9%; for `CC(C)CC1NC(=S)N(Cc2ccccc2)C1=O` (configuration not stated), -72.3%. Take `CCC(C)NC(=O)c1cc2cc3ccc(OC)cc3nc2s1` (configuration not stated): the Potency is active: 12.6 µM. `O=C(Nc1nc(-c2cccs2)cs1)c1cccc(S(=O)(=O)N2CCCCCC2)c1`: the “activity change, positive = activation” value is inactive: -67.8%. Still for that read-out and setting: for `Cc1cc(C)c(C)c(S(=O)(=O)Nc2ccccc2C(=O)NCCCn2ccnc2)c1C` the value was 43.1%; for `COc1ccc2c(OC)cc(=O)n(C)c2c1`, 48.2%. On the same count and under the same terms, for `Cc1cccc(-c2nc(=S)c3c(n2Cc2ccco2)CCCC3)c1` the value was 43.1%. The same measure, in the same setting: for `CC(=O)Cc1nsc(NC(=O)c2ccco2)n1` the value was 46.6%. For `O=C(COc1ccccc1)Nc1cccc(-c2nc3cc4ccccc4cc3[nH]2)c1`, the Potency was active: 1.78 µM. For `CN(C)c1ccc(-c2noc(C3CCN(S(=O)(=O)c4cccc(Cl)c4)CC3)n2)cc1`, the activity change, positive = activation was -53.1%. The same measure, in the same setting: to `Cc1cc(=O)[nH]c(N2CCc3ccccc3C2)n1` belongs 30.3%. As to `COc1ccc(S(=O)(=O)Nc2ccc(S(=O)(=O)N3CCOCC3)cc2)cc1C`, the activity change, positive = activation was 47.5%. On to `CCOCC(=O)Nc1nc2ccc(C)cc2s1`, for which the Potency was active: 10 µM. Turning to `O=c1c2ccccc2cnn1-c1nc2ccccc2[nH]1`, the activity change, positive = activation is -83.6%. On the same count and under the same terms, to `Cc1ccc2c(=O)cc(C(=O)Nc3sc4c(c3C(=O)NCc3cccnc3)CCCC4)oc2c1` belongs 32.2%; to `Cc1ccc(CNCc2cc3c(C(C)(C)C)nn(-c4ccccc4)c3[nH]c2=O)cc1`, 70.5%; to `Cc1nnc(C)n1/N=C/c1cc(Br)cc(Br)c1O`, 36.7%. Same read-out and setting: for `COc1ccc(C(=O)OCC(=O)Nc2ccc(Cl)cn2)cc1` the value was 35.5%. On the same count and under the same terms, for `Cc1ccc(-c2nnc(SCC(=O)Nc3ccc4c(c3)oc3ccccc34)n2C)c(Cl)c1` the value was inactive: -83.3%; for `COc1ccc(-n2nc(C(=O)O)nc2-c2ccccc2)cc1`, 54.5%; for `CCOC(=O)Cc1csc(NC(=O)CSc2nnc(Cc3csc(N)n3)n2C)n1`, 30.1%. For `CCCCOc1cccc(C2(C(=O)O)CCCC2)c1`, the activity change, positive = activation turned out to be 32.7%. As for `O=S(=O)(c1ccccc1)N1CCN=C1SCc1ccccc1Cl`, the activity change, positive = activation was -29%. Consider `CSC1=NC2(CCCCC2)CC12C=CC(=O)C=C2`, for which the activity change, positive = activation is -4.72%. Turning to `O=C(CSc1nnc2c3c4c(sc3ncn12)CCCC4)NCc1ccco1`, the activity change, positive = activation is -40.3%. Still for that read-out and setting: to `CCOC(=O)C1=C(CC)Nc2ccccc2N=C1NC(=O)c1oc2ccccc2c1C` belongs inactive: -39.1%; to `Nc1ccccc1S(=O)(=O)NC1=NCCCCC1`, 35.4%. Still for that read-out and setting: for `Cc1ccc(C)c(OCCOCCN2CCOCC2)c1` the value was 44.1%. For `CCOc1ccccc1/C=C/C(=O)c1ccc(Cl)cc1`, the “activity change, positive = activation” value was inactive: -58.2%. The same measure, in the same setting: for `O=C(O)CC1NC(=O)N(c2ccc(Cl)cc2)C1=O` (configuration not stated) the value was 19%.
